In paper PMC7949078 one finds binding data, which are given here for one molecule.

These are yes or no findings as the source states them, for the method shown. In cells and extracts the contact can be indirect. Here binding means that the protein was enriched with, or labelled near, the bait; the list need not be complete. Where a sequence is shown, tags or fusion partners need not be part of it.

The assay addresses T1, GST-PRAP1△N20 (GST-tagged recombinant PRAP1 lacking the N-terminal 20-aa signal peptide) (mouse) (UniProt Q80XD8).
T1 sequence: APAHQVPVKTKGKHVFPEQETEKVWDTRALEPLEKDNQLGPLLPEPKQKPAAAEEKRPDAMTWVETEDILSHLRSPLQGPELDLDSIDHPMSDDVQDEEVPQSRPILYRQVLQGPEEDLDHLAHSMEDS
The experiment in a line: affinity purification with mass spectrometry; about 10 ug GST-PRAP1△N20 (or GST) on glutathione beads added to 2 mg IEC lysate of PRAP1-/- mice; 1 h at 4 °C; NP-40 lysis buffer (10 mM HEPES pH 7.5, 142.5 mM KCl, 5 mM MgCl2, 1 mM EGTA, 0.2% NP-40); bands seen with GST-PRAP1△N20 but not GST identified by mass spectrometry; only the target purified.

B1: Microsomal triglyceride transfer protein (MTTP), endogenous in mouse intestinal epithelial cells (protein, UniProt O08601 22-894)
chain: HTTGLSLNNERLYKLTYSTEVFLDGGKGKPQDSVGYKISSDVDVVLLWRNPDGDDDQVIQVTITAVNVENAGQQRGEKSIFQGKSTPKIIGKDNLEALQRPMLLHLVRGKVKEFYSYENEPVGIENLKRGLASLFQMQLSSGTTNEVDISGDCKVTYQAQQDKVVKIKALDTCKIERSGFTTANQVLGVSSKATSVTTYKIEDSFVTAVLAEETRAFALNFQQTIAGKIVSKQKLELKTTEAGPRMIPGKQVAGVIKAVDSKYKAIPIVGQVLERVCKGCPSLAEHWKSIRKNLEPENLSKAEAVQSFLAFIQHLRTSRREEILQILKAEKKEVLPQLVDAVTSAQTPDSLEAILDFLDFKSDSSIILQERFLYACGFATHPDEELLRALLSKFKGSFASNDIRESVMIIIGALVRKLCQNEGCKLKAVVEAKKLILGGLEKPEKKEDTTMYLLALKNALLPEGIPLLLKYAEAGEGPVSHLATTVLQRYDVSFITDEVKKTLNRIYHQNRKVHEKTVRTTAAAVILKNPSYMDVKNILLSIGELPKEMNKYMLTVVQDILHFEMPASKMIRRVLKEMAVHNYDRFSKSGSSSAYTGYVERSPRAASTYSLDILYSGSGILRRSNLNIFQYIGKAELHGSQVVIEAQGLEGLIAATPDEGEENLDSYAGMSAILFDVQLRPVTFFNGYSDLMSKMLSASGDPVSVVKGLILLIDHSQDIQLQSGLKANMEIQGGLAIDISGSMEFSLWYRESKTRVKNRVAVVITSDVTVDASFVKAGVESRAETEAGLEFISTVQFSQYPFLVCMQMDKAEAPLRQFETKYERLSTGRGYVSRRRKESLVAGCELPLHQENSEMCNVVFPPQPESDNSGGWF
As for B1, the binding result was “binds”.
